{
  "sequences": {"note": "Protein sequences, listed by entry. Tags and fused reporters are not part of them. Residues count along the entry.", "UniProt Q9BRS8, 86-177": "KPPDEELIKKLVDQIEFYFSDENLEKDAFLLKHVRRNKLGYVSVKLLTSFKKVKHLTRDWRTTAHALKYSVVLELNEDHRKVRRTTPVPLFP"},
  "source": "patent US20230313296",
  "molecular_target": "LARP6 LA-domain (UniProt Q9BRS8)",
  "assay": "binding assay",
  "conditions": "G10 substituted with 2-aminopurine; 2AP fluorescence intensity change at saturating LA-domain; p<0.0001; purified recombinant protein; label: 2-aminopurine at position 10",
  "note": "Construct, isoform or probe ends are uncertain for at least one entry. Whether high values mean tight binding is not given here for every scale.",
  "data": [
    {"sequence": "CCACAAAGAGUCUACAUGUCUAGGGUCUAGACAUGUUCAGCUUUGUGG [fluorescent collagen a1(I) 5'SL]", "values": [
      {"measurement": "binding signal (fold fluorescence increase)", "result": 2}
    ]}
  ]
}
